From PubChem BioAssay AID504834 (National Center for Advancing Translational Sciences (NCATS), 2011)
Out of some 320,000 compounds screened, about 22,000 (6.9%) were called active. The inconclusive results got no clear call from the source; some entries with a clear call stand among them for comparison. The call rests on the fitted dose curve; in most records, active means well fitted inhibition curve with a large enough effect; inconclusive means small, poorly fitted or top-dose-only effect, or another doubt; inactive means no such curve, though single readings can be large or run the other way. A potency beside an inconclusive call is a rough fit, not a confirmed value. Where a structure was tested more than once in an assay, its records may differ in their call.

assay: Primary qHTS for delayed death inhibitors of the malarial parasite plastid, 96 hour incubation; conditions: P. falciparum luciferase reporter growth; series mostly up to 28.7 µM; activity change, negative = inhibition: at the top concentration
Outline: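 Luminescence readout: decreased luciferase signal marks inhibited growth of reporter-expressing P. falciparum in infected red cells (2% hematocrit, 0.05% parasitemia final), exposed to compound two generations (96 h, 37 C, 5% CO2).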
On the % scale 0 is the no-effect control and ±100 the full control effect; potency means the concentration at half of the fitted maximal effect.

| Compound | Potency | activity change, negative = inhibition |
| --- | --- | --- |
| CC(NC(=O)CN(c1cccc(C(F)(F)F)c1)S(=O)(=O)c1ccc(Cl)c([N+](=O)[O-])c1)c1ccccc1 (configuration not stated) | inconclusive: 10.4 µM [inhibitor, single point] | – |
| O=C(NCc1ccccc1)c1ccc2c(c1)C(=O)N(Cc1cccnc1)C2=O | inconclusive: 18.5 µM [inhibitor, single point] | – |
| OCC1(CC2CCCCO2)CCN(Cc2cccc(O)c2)CC1 (configuration not stated) | – | inactive: -12.5% |
| Cc1ccc(C)c(NC(=S)N2CCC(NC(=O)c3cccc(F)c3)CC2)c1 | – | inactive: 3.87% |
| Cc1cc(C)n(-c2n[nH]c(=O)c3ccccc23)n1 | – | inactive: 30.2% |
| COc1ccc(-c2[nH]c(-c3ccc(C)cc3)nc2SCC(=O)NCc2ccco2)cc1OC | – | inactive: 26.2% |
| CCC(=O)Nc1c(C#N)c2nc3ccccc3nc2n1C1CCCCC1 | inconclusive: 4.15 µM [inhibitor, partial curve, poor fit] | – |
| COc1ccc(CNC(=O)c2ccc(Cn3nc(C)cc3C)o2)cc1 | active: 1.47 µM | – |
| COc1ccc(NC(=O)CN(C)S(=O)(=O)c2ccc3c(c2)CC(C)N3C(C)=O)c(OC)c1 (configuration not stated) | active: 7.38 µM | – |
| CCOc1ccc(NC(=O)Nc2cccs2)cc1 | inconclusive: 0.415 µM [inhibitor, partial curve, poor fit] | – |
| O=C(CN(C(=O)CCC(=O)Nc1nccs1)c1ccccc1F)NCc1ccc(F)cc1 | inconclusive: 8.28 µM [inhibitor, partial curve, poor fit] | – |
| COc1ccccc1OCc1ccc(C(=O)N2CCCCC2)o1 | inconclusive: 6.57 µM [inhibitor, partial curve, poor fit] | – |
| O=C(NCc1nnc(SCC(=O)N2CCOCC2)o1)c1cccs1 | inconclusive: 0.208 µM [inhibitor, full curve, poor fit] | – |
| COc1ccc(-c2nnc(SCc3ccc(C(=O)O)cc3)n2C)cc1OC | inconclusive: 18.5 µM [inhibitor, single point] | – |
| O=C(c1cccc(F)c1)N1CCN(Cc2ccc3c(c2)OCO3)CC1 | – | inactive: 19.2% |
| CCCNC(=O)C(NS(=O)(=O)c1ccc2c(c1)c(=O)n(C)c(=O)n2C)c1ccccc1 (configuration not stated) | inconclusive: 11.7 µM [inhibitor, partial curve, poor fit] | – |
| CCOC(CNC(=O)C1CCN(S(=O)(=O)c2ccc3nc4c(c(C(=O)O)c3c2)CC(C)CC4)CC1)OCC (configuration not stated) | inconclusive: 13.1 µM [inhibitor, partial curve, poor fit] | – |
| O=C(NNC(=O)c1ccccc1Br)c1ccc(Cl)cc1 | – | inactive: 164% |
| O=C(N/N=C1\CC2CC=CC12)c1ccc(O)cc1 (configuration not stated) | inconclusive: 2.94 µM [inhibitor, partial curve, poor fit] | – |
| CC(=NCCc1c(C)[nH]c2ccc(C)cc12)C1=C(O)CC(c2ccccc2)CC1=O (configuration not stated) | – | inactive: 33.1% |
| CCN(C(=O)COC(=O)c1ccccc1NCCO)c1cccc2ccccc12 | active: 10.4 µM | – |
| O=C(CNC(=O)c1cccc(Cl)c1)Nc1ccc(Br)cc1C(=O)c1ccccc1 | inconclusive: 2.62 µM [inhibitor, partial curve, poor fit] | – |
| Cc1ccccc1Nc1nc(N)nc(COC(=O)[C@@H](NC(=O)c2c(F)cccc2F)C(C)C)n1 | inconclusive: 18.5 µM [inhibitor, single point] | – |

| Compound | Potency | activity change, negative = inhibition |
| --- | --- | --- |
| Cc1ccccc1C(=O)N=c1sccn1C | – | inactive: 60.2% |
| CCOC(=O)C1CCCN(Cc2cn(C)nc2-c2ccc3c(c2)OCCO3)C1 (configuration not stated) | inconclusive: 5.22 µM [inhibitor, partial curve] | – |
| CC(C)(C)SCCNC(=O)COc1ccc(Cl)cc1 | inconclusive: 8.28 µM [inhibitor, partial curve, poor fit] | – |
| Cc1ccc(NC2(c3nnnn3-c3c(C)cccc3C)CCCCC2)cc1 | inconclusive: 1.47 µM [inhibitor, partial curve, poor fit] | – |
| Cc1ccc(-c2nc(CS(=O)CC(=O)NCCC(C)C)c(C)o2)cc1 (configuration not stated) | inconclusive: 2.62 µM [inhibitor, partial curve, poor fit] | – |
| CCN1CCN(C(=O)c2ccc3c(=O)n(CCC4=CCCCC4)c(=O)[nH]c3c2)CC1 | – | inactive: 37.3% |
| CC(C)[C@@H](C(=O)N1CCN(C(=O)OC(C)(C)C)CC1)n1cc(CCO)nn1 | – | inactive: 6.63% |
| O=C(NCc1ccco1)/C(=C\c1ccco1)NC(=O)c1ccc(Br)o1 | – | inactive: 0% |
| Cc1ccc2oc(-c3cc(NC(=O)c4ncn[nH]4)ccc3O)nc2c1 | inconclusive: 13.1 µM [inhibitor, single point] | – |
| Cc1cc(C(=O)Cn2ncc(Cl)c(Cl)c2=O)c(C)n1CC(F)(F)F | inconclusive: 4.65 µM [inhibitor, partial curve, poor fit] | – |
| CS(=O)(=O)c1ccc2nc(NC(=O)c3cc([N+](=O)[O-])cc([N+](=O)[O-])c3)sc2c1 | – | inactive: 4.22% |
| Cc1ccccc1-c1nc(CS(=O)CC(=O)NCc2ccccc2)c(C)o1 (configuration not stated) | inconclusive: 10.4 µM [inhibitor, partial curve, poor fit] | – |
| O=C(CSc1ccc([N+](=O)[O-])cn1)Nc1ccc(N2CCOCC2)cc1 | inconclusive: 14.7 µM [inhibitor, single point] | – |
| O=C(Nc1ccc(O)cc1)c1ccc(NC(=O)C2CCCO2)cc1 (configuration not stated) | inconclusive: 10.4 µM [inhibitor, partial curve] | – |
| CC(=O)c1cccc(Nc2c3c(nc4ccccc24)CCC3)c1 | – | inactive: 0% |
| CCCn1c(NC(=O)c2ccccc2Br)nc2ccccc21 | inconclusive: 18.5 µM [inhibitor, single point] | – |
| CC(C)Cn1c(SCC(=O)N2CC(=O)Nc3ccccc32)nc2ccccc21 | inconclusive: 11.7 µM [inhibitor, single point] | – |
| COc1ccc2oc(=N)c(C(=O)Nc3ccc(C)cc3)cc2c1 | inconclusive: 0.0041 µM [inhibitor, full curve, poor fit] | – |
| COC(=O)Cc1ccc(NC(=O)c2ccc(Br)o2)cc1 | – | inactive: 0.0021% |
| O=C(c1cc(=O)c2cc(Cl)ccc2o1)N1CCN(Cc2ccccc2)CC1 | inconclusive: 5.22 µM [inhibitor, partial curve, poor fit] | – |
| CCOc1ccc(S(=O)(=O)N2CCCC(C(=O)Nc3cc(C)cc(C)c3)C2)cc1 (configuration not stated) | – | inactive: -17.1% |
| Cc1ccc(CN2CC(C(=O)Nc3nnc(SCc4c(Cl)cccc4Cl)s3)CC2=O)cc1 (configuration not stated) | inconclusive: 5.86 µM [inhibitor, partial curve, poor fit] | – |

| Compound | Potency | activity change, negative = inhibition |
| --- | --- | --- |
| Cc1ccc(-c2cc(C(=O)NCc3ccccn3)c3ccccc3n2)cc1C | – | inactive: -7.61% |
| COC(=O)c1ccc(/C=C2\Oc3ccccc3NC2=O)cc1 | inconclusive: 18.5 µM [inhibitor, single point] | – |
| COCCNC(=O)Cn1c(=O)n(Cc2ccc(C(=O)NCCc3ccc(OC)c(OC)c3)cc2)c(=O)c2ccccc21 | inconclusive: 18.5 µM [inhibitor, single point] | – |
| NS(=O)(=O)c1ccc(NC(=O)C2C3C=CC(C3)C2C(=O)O)cc1 (configuration not stated) | – | inactive: 148% |
| O=C(COc1cccc(F)c1)Nc1nc(-c2cccnc2)cs1 | inconclusive: 18.5 µM [inhibitor, single point] | – |
| Cc1ccc(C2NC(=S)NC(c3ccc(C)cc3)C23C(=O)NC(=O)NC3=O)cc1 (configuration not stated) | inconclusive: 0.037 µM [inhibitor, full curve, poor fit] | – |
| O=C(NC1CCCCC1)C1CC=CCC1C(=O)OCC(Cl)=C(Cl)Cl (configuration not stated) | inconclusive: 18.5 µM [inhibitor, single point] | – |
| O=C(CN1CCN(Cc2ccc(F)cc2)CC1)Nc1nc2ccccc2s1 | inconclusive: 18.5 µM [inhibitor, single point] | – |
| O=C(Nc1ccc(F)cc1)Nc1nnc(COc2ccccc2F)s1 | – | inactive: -5.74% [at 5.75 µM] |
| C/C(=N\NC(=O)C1(C)CC1(Br)Br)c1cccc(NC(=O)c2ccc(C)o2)c1 (configuration not stated) | – | inactive: -21.2% |
| O=c1oc2cc(OCc3c(F)cccc3Cl)ccc2cc1-c1ccccn1 | inconclusive: 14.7 µM [inhibitor, single point] | – |
| O=C1c2ccccc2-c2nccnc21 | inconclusive: 10.4 µM [inhibitor, partial curve, poor fit] | – |
| COc1ccc(OC)c(-c2cc(C(=O)N/N=C(\C)c3cccnc3)c3ccccc3n2)c1 | – | inactive: -103% |
| CC1(C)CC[C@]2(C(=O)O)CC[C@]3(C)C(=CCC4[C@@]5(C)CC[C@H](O)C(C)(C)C5CC[C@]43C)C2C1 (some centres not stated) | inconclusive: 18.5 µM [inhibitor, single point] | – |
| COc1ccc(N2CCN(C3CCCN(Cc4ccc(F)cc4)C3)CC2)cc1 (configuration not stated) | inconclusive: 18.5 µM [inhibitor, single point] | – |
| Cc1cccc(NC(=O)CCS(=O)(=O)c2ccc3c(c2)NC(=O)CS3)n1 | inconclusive: 4.65 µM [inhibitor, partial curve, poor fit] | – |
| COc1ccc(S(=O)(=O)NN(C)C(=O)c2nn(-c3ccccc3)ccc2=O)cc1 | active: 5.86 µM | – |
| Cc1ccccc1N1CCN(C2=NC(=O)/C(=C/c3cn[nH]c3-c3ccccc3)S2)CC1 | inconclusive: 0.262 µM [inhibitor, full curve] | – |
| Cc1c(C(=O)NC2CCCCC2)oc2ccccc12 | inconclusive: 18.5 µM [inhibitor, single point] | – |
| COC(=O)c1ccc2nc(NC(=O)CN3C(=O)CCC3=O)sc2c1 | active: 0.828 µM | – |
| CCc1nnc(NC(=O)CSc2nnc(COc3ccc(C#N)cc3)n2-c2ccccc2)s1 | inconclusive: 16.5 µM [inhibitor, single point] | – |

In the list so far, 5 contain two or more sulfur atoms:

| Compound | Potency | activity change, negative = inhibition |
| --- | --- | --- |
| O=C(NCc1nnc(SCC(=O)N2CCOCC2)o1)c1cccs1 | inconclusive: 0.208 µM [inhibitor, full curve, poor fit] | – |
| CS(=O)(=O)c1ccc2nc(NC(=O)c3cc([N+](=O)[O-])cc([N+](=O)[O-])c3)sc2c1 | – | inactive: 4.22% |
| Cc1ccc(CN2CC(C(=O)Nc3nnc(SCc4c(Cl)cccc4Cl)s3)CC2=O)cc1 (configuration not stated) | inconclusive: 5.86 µM [inhibitor, partial curve, poor fit] | – |
| Cc1cccc(NC(=O)CCS(=O)(=O)c2ccc3c(c2)NC(=O)CS3)n1 | inconclusive: 4.65 µM [inhibitor, partial curve, poor fit] | – |
| CCc1nnc(NC(=O)CSc2nnc(COc3ccc(C#N)cc3)n2-c2ccccc2)s1 | inconclusive: 16.5 µM [inhibitor, single point] | – |
